According to article PMC6468289:
Results are given in words; binding and its absence hold for the method and conditions named. Binding seen in cells or lysates may run through a third protein. Some results given as binding are weak or reduced against the parent protein; the word gives no strength.

By UniProt entry, the sequences of proteins in these tests, tags left out.
UniProt Q7TQN4: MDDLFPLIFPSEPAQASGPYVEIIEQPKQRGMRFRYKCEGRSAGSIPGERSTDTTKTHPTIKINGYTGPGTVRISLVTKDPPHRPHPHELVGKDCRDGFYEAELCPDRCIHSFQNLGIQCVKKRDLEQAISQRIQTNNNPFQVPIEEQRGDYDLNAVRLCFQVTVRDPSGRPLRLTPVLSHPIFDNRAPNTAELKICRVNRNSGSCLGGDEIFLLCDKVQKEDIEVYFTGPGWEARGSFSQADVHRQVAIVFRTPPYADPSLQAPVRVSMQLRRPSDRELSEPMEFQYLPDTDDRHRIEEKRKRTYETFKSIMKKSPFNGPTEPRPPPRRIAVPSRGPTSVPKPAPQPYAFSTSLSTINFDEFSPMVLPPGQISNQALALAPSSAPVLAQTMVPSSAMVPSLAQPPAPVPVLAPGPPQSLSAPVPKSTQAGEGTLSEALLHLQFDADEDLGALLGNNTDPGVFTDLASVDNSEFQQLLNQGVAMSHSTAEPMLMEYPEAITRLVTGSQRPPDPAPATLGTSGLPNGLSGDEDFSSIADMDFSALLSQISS

Biological target: NF-κB p65 (rat (endogenous in VSMCs)) (UniProt Q7TQN4)
Assay: co-IP; nuclear fraction of VSMCs treated with TNF-α for 1 h after infection with Ad-Vector or Ad-circ-Sirt1, with and without EX527; lysates precleared with Protein A/G PLUS-Agarose, immunoprecipitated with indicated antibodies at 4°C overnight, Western blot

binding: binds
B1: SIRT1 (protein, UniProt A0A0G2JZ79 1-741)
chain: MADEAALALQAGGSPSAAAAMEAASQPADEPLRKRPRRDGPGLGRSPGEPSAAAAAAAAAAGCEAASAAAPAALWREAAGAAAASAEREAPATAAAGDGDNGPGLRREPRAADDFDDDEGEEEDEAAAAAAAAIGYRDNLLLADEIITNGFHSCESDDDDRASHASSSDWTPRPRIGPYTFVQQHLMIGTDPRTILKDLLPETIPPPELDDMTLWQIVINILSEPPKRKKRKDINTIEDAVKLLQECKKIIVLTGAGVSVSCGIPDFRSRDGIYARLAVDFPDLPDPQAMFDIEYFRKDPRPFFKFAKEIYPGQFQPSLCHKFIALSDKEGKLLRNYTQNIDTLEQVAGIQRIIQCHGSFATASCLICKYKVDCEAVRGDIFNQVVPRCPRCPADEPLAIMKPEIVFFGENLPEQFHRAMKYDKDEVDLLIVIGSSLKVRPVALIPSSIPHEVPQILINREPLPHLHFDVELLGDCDVIINELCHRLGGEYAKLCCNPVKLSEITEKPPRTQKELVHLSELPPTPLHISEDSSSPERTVPQDSSVIATLVDQTIKNKVDDLEVSEPKSCVEEKSQEVQTYRNVESINVENPDFKAVGSSTGDKNERTSVAETVRKCWPNRLAKEQISKRLDGNQYLFVPPNRYIFHGAEVYSDSEDDALSSSSCGSNSDSGTCQSPSLEEPLEDESEIEEFYNGLEDDADRPECAGGSGADGGDQEAVNEAIAMKQELTDVNCTPDKSEHY
